In paper PMC11603131:

T1: FLAG-tagged PfRpn13 (codon-optimised for human cells) (Plasmodium falciparum) (UniProt Q8ILV5)
T1 sequence: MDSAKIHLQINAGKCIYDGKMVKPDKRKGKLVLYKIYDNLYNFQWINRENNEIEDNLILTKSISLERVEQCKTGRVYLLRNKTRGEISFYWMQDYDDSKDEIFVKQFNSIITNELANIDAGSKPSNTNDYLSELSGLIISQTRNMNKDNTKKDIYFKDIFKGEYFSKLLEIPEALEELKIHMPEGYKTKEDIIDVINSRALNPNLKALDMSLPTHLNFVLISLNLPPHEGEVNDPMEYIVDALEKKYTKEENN


Columns and labels:
[1] = target: T1, FLAG-tagged PfRpn13 (codon-optimised for human cells) (Plasmodium falciparum); assay: co-IP; HEK293 cells co-expressing HA-tagged PfUCH37 constructs and FLAG-tagged PfRpn13; anti-FLAG or anti-HA magnetic beads; immunoblot
[2] = target: HA-tagged PfUCH37dN (poly-asparagine-rich region deleted) (Plasmodium falciparum); assay: as above

Molecule | binding [1] | binding [2]
HA-tagged PfUCH37dN (poly-asparagine-rich region deleted) (Plasmodium falciparum) (enzyme) | binds | –
FLAG-tagged PfRpn13 (codon-optimised for human cells) (protein, UniProt Q8ILV5 1-253) MDSAKIHLQINAGKCIYDGKMVKPDKRKGKLVLYKIYDNLYNFQWINRENNEIEDNLILTKSISLERVEQCKTGRVYLLRNKTRGEISFYWMQDYDDSKDEIFVKQFNSIITNELANIDAGSKPSNTNDYLSELSGLIISQTRNMNKDNTKKDIYFKDIFKGEYFSKLLEIPEALEELKIHMPEGYKTKEDIIDVINSRALNPNLKALDMSLPTHLNFVLISLNLPPHEGEVNDPMEYIVDALEKKYTKEENN | – | binds

No constants are given. Whether binding was seen depends on the method and setting. Binding seen in cells or lysates may run through a third protein. Binding can be weak; no strength is given. Tags and fused reporters may be left off the sequences shown.
